In the supplement of paper PMC10849652:
The list shows a part of the results.

Protein sequences, listed by entry. Tags and fused reporters are not part of them. Lines headed by an entry give the natural chain unless they say otherwise; changes in a name come on top.
UniProt Q9BUN5: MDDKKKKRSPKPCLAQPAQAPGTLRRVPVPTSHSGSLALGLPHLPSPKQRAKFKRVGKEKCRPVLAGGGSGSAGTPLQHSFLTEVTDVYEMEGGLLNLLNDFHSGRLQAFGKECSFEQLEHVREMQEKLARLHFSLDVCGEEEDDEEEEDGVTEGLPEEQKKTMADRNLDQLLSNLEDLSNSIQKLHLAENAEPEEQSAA
UniProt Q6PK04: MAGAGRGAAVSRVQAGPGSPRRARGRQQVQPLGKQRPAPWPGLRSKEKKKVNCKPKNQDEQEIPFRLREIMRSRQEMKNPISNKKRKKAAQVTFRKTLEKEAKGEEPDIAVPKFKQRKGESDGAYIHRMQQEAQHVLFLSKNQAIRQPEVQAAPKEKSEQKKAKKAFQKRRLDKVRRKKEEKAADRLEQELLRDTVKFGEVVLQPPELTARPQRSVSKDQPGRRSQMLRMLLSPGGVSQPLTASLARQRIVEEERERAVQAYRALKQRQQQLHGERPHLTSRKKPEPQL
UniProt O14618: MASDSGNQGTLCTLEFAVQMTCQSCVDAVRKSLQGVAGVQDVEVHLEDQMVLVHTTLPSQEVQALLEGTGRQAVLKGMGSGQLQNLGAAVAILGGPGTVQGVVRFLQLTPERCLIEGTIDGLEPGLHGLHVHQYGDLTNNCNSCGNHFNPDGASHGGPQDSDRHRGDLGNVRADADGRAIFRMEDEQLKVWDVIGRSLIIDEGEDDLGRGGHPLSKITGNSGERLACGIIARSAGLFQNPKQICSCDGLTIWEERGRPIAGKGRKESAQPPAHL
UniProt O95067, whole entry, looked up: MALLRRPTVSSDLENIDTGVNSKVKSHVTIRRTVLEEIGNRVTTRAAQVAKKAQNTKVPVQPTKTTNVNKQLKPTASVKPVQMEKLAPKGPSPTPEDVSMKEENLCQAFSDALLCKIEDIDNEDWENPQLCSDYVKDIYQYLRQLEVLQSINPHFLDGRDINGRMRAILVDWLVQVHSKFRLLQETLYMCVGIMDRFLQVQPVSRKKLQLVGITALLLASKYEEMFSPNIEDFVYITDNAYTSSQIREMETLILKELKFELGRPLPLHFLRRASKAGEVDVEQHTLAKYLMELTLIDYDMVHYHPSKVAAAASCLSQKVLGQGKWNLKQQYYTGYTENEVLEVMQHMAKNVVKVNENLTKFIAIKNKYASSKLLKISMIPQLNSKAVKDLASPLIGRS
UniProt Q9P219: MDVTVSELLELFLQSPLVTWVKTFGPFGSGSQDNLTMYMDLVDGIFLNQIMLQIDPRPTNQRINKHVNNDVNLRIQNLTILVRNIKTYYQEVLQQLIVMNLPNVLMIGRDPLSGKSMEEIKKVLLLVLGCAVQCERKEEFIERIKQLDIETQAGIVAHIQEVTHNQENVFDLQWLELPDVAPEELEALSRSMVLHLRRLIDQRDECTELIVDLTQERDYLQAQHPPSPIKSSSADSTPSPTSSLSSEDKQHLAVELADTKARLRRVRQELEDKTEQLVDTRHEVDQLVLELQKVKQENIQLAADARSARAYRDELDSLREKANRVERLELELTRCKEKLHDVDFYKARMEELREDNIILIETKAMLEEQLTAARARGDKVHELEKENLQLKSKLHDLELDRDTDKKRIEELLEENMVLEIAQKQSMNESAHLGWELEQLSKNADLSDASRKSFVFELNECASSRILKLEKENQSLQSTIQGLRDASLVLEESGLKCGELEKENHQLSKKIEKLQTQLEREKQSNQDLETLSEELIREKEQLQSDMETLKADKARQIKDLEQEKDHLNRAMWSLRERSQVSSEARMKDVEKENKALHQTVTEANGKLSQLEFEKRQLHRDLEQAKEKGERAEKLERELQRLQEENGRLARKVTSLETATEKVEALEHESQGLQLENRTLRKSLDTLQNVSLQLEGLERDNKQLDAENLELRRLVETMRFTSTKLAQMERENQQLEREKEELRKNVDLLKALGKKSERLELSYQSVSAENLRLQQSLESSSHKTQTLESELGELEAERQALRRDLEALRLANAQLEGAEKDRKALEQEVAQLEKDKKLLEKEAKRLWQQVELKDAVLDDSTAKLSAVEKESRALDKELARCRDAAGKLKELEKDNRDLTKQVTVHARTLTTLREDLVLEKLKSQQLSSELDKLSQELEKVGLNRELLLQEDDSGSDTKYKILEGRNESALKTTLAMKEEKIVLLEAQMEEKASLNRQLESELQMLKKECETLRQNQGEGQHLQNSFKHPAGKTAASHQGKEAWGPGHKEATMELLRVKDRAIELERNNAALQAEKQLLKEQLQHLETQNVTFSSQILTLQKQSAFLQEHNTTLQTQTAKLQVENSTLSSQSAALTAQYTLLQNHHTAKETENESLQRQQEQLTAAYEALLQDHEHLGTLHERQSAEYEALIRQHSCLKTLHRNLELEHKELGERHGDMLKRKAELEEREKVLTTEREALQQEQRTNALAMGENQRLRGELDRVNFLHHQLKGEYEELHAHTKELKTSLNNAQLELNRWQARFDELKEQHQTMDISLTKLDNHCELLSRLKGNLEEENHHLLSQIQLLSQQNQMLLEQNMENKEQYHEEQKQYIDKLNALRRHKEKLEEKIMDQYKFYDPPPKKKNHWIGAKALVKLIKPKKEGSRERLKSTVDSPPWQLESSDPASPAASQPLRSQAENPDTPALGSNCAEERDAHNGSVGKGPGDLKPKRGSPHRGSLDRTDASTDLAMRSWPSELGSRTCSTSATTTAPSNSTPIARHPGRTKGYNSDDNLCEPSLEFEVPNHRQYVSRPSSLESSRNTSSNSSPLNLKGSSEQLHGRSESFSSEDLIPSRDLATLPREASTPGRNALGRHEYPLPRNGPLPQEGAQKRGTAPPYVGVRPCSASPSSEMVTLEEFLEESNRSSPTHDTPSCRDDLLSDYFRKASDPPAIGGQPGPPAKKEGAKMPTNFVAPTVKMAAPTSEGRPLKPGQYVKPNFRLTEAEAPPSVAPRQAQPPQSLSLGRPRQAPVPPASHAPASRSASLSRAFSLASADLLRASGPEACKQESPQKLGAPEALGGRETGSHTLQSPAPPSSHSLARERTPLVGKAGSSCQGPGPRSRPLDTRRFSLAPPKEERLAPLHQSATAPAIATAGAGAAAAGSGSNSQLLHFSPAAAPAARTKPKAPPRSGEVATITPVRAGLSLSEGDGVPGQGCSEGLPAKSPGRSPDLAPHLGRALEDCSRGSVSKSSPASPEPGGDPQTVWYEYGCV
UniProt Q7Z6B0: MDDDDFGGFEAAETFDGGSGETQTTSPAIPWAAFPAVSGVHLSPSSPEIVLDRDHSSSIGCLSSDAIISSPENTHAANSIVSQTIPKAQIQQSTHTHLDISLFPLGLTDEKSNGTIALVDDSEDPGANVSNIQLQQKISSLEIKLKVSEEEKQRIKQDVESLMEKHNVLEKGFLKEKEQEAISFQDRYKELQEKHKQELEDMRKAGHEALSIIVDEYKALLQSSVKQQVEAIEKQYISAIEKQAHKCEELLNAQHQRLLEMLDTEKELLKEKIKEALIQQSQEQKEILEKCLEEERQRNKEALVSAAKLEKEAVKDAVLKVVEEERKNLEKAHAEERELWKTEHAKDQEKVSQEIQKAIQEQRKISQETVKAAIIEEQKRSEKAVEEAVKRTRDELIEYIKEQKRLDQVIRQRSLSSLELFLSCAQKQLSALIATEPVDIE
UniProt Q9Y2G2: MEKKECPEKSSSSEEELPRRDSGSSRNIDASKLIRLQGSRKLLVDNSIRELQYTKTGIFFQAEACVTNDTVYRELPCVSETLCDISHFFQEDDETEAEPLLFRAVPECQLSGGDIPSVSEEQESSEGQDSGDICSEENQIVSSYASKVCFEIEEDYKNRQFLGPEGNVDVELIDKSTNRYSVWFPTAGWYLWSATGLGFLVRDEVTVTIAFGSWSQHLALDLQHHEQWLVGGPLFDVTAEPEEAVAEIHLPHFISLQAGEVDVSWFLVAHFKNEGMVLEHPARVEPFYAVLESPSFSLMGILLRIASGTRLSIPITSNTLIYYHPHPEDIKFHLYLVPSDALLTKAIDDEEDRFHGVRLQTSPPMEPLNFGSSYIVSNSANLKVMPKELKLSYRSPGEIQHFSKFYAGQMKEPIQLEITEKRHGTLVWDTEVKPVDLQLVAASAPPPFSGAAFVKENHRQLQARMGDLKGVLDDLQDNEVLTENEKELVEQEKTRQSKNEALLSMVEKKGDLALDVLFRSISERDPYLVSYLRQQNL
UniProt P40227, whole entry, looked up: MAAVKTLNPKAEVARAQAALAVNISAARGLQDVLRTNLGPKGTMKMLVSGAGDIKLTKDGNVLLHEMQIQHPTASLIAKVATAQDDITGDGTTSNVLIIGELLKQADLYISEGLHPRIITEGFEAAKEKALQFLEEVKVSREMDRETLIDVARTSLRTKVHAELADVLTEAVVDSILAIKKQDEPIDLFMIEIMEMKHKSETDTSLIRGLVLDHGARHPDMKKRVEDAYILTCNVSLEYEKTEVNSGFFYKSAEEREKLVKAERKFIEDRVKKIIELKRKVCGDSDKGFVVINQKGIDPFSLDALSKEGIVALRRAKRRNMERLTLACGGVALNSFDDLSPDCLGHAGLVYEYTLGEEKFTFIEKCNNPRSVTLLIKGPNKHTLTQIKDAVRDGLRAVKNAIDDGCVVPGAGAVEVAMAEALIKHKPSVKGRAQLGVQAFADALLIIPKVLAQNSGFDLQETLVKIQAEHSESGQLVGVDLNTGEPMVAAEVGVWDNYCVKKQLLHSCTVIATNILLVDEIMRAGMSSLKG
UniProt Q96ER9: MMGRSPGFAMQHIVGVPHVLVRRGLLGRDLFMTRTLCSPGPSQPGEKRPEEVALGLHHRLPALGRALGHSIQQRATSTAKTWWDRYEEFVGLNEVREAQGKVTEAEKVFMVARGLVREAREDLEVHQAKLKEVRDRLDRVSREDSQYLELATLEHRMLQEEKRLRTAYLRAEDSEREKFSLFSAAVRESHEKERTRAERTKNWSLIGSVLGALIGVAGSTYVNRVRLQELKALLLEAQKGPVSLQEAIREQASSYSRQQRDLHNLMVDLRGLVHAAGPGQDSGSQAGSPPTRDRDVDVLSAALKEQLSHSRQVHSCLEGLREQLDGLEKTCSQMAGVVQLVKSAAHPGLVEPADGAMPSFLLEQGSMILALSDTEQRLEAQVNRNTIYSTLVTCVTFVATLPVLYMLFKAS
UniProt P60033: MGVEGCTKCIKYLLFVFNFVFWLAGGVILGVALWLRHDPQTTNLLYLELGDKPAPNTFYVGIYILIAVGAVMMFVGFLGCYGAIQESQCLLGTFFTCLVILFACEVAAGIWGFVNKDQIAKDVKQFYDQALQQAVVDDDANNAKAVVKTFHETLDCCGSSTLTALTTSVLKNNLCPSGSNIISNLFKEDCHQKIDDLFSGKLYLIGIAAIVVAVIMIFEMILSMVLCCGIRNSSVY
UniProt Q8IWP9: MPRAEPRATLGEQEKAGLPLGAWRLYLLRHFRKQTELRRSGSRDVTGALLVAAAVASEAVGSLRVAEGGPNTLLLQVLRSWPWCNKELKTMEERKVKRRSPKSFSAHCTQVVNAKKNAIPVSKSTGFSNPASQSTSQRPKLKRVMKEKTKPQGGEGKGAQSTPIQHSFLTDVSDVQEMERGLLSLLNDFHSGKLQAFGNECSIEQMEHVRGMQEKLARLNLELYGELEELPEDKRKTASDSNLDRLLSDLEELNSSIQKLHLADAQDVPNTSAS
UniProt Q13185: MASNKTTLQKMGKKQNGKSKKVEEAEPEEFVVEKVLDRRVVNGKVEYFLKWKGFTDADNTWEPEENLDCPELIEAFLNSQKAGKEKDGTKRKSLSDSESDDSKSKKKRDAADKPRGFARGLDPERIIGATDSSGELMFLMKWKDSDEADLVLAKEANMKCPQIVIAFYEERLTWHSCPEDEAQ
UniProt Q16204: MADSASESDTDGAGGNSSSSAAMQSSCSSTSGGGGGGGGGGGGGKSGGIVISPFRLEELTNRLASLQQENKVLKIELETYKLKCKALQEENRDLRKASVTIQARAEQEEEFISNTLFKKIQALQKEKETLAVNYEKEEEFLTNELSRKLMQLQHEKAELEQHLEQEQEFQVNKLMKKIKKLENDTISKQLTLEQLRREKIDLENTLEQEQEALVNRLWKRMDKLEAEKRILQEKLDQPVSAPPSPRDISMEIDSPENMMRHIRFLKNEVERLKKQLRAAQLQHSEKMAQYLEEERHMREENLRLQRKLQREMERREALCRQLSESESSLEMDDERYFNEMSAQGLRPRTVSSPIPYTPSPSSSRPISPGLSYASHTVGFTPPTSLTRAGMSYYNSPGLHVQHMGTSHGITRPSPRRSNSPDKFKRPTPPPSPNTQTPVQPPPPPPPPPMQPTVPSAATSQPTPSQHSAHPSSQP

Assays:
Assay in all cases: log2 fold change, soluble protein after heating vs DMSO (PISA); higher = thermal stabilisation; K562 lysate, 10 uM; active = over 0.2 and 3.5 SD of the protein, either way, in both replicates (recomputed)
lapatinib = compound: CS(=O)(=O)CCNCc1ccc(-c2ccc3ncnc(Nc4ccc(OCc5cccc(F)c5)c(Cl)c4)c3c2)o1 [lapatinib]
How it was run: (§1)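 Quantification was by TMTpro 16plex LC-MS/MS with equalised channel sums, applied to the supernatant after 21,000xg for 90 min. Samples were crude K562 extract at 1 mg/mL protein in PBS pH 7.4 with 1 mM MgCl2, treated with 10 μM compound for 30 min, heated for 3 min across 48°C-58°C, pooled and brought to 0.5% NP-40 at 4°C. Values are log-two fold changes in thermal stability relative to solvent controls, from duplicates.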

pictilisib = compound: CS(=O)(=O)N1CCN(Cc2cc3nc(-c4cccc5[nH]ncc45)nc(N4CCOCC4)c3s2)CC1 [pictilisib]
How it was run: as §1

crizotinib = compound: C[C@@H](Oc1cc(-c2cnn(C3CCNCC3)c2)cnc1N)c1c(Cl)ccc(F)c1Cl [crizotinib]
How it was run: as §1

[1] = compound: C[C@H](C1=CC=C(C=C1)C(=O)NC2=C3C=CNC3=NC=C2)N
How it was run: as §1

duvelisib = compound: C[C@H](Nc1ncnc2nc[nH]c12)c1cc2cccc(Cl)c2c(=O)n1-c1ccccc1 [duvelisib]
How it was run: as §1

gandotinib = compound: Cc1cc(Nc2cc(CN3CCOCC3)c3nc(C)c(Cc4ccc(Cl)cc4F)n3n2)n[nH]1 [gandotinib]
How it was run: as §1

tozasertib = compound: Cc1cc(Nc2cc(N3CCN(C)CC3)nc(Sc3ccc(NC(=O)C4CC4)cc3)n2)n[nH]1 [tozasertib]
How it was run: as §1

doramapimod = compound: Cc1ccc(-n2nc(C(C)(C)C)cc2NC(=O)Nc2ccc(OCCN3CCOCC3)c3ccccc23)cc1 [doramapimod]
How it was run: as §1

bafetinib = compound: Cc1ccc(NC(=O)c2ccc(CN3CC[C@H](N(C)C)C3)c(C(F)(F)F)c2)cc1Nc1nccc(-c2cncnc2)n1 [bafetinib]
How it was run: as §1

[2] = compound: Cc1cccc(CC(=O)N2CCc3c2ccc(-c2cn(C)c4ncnc(N)c24)c3F)n1
How it was run: as §1

nilotinib = compound: Cc1cn(-c2cc(NC(=O)c3ccc(C)c(Nc4nccc(-c5cccnc5)n4)c3)cc(C(F)(F)F)c2)cn1 [nilotinib]
How it was run: as §1

[3] = compound: Cc1nc(Nc2n[nH]c3c2CN(C(=O)N[C@H](CN(C)C)c2ccccc2)C3(C)C)c2sccc2n1
How it was run: as §1

dasatinib = compound: Cc1nc(Nc2ncc(C(=O)Nc3c(C)cccc3Cl)s2)cc(N2CCN(CCO)CC2)n1 [dasatinib]
How it was run: as §1

[4] = compound: Cc1ncc(-c2ccnc(Nc3ccc(S(C)(=O)=O)cc3)n2)n1C(C)C
How it was run: as §1

[5] = compound: Cn1cc(-c2ccc3c(c2)CCN3C(=O)Cc2cccc(C(F)(F)F)c2)c2c(N)ncnc21
How it was run: as §1

quisinostat = compound: Cn1cc(CNCC2CCN(c3ncc(C(=O)NO)cn3)CC2)c2ccccc21 [quisinostat]
How it was run: as §1

tipifarnib = compound: Cn1cncc1[C@@](N)(c1ccc(Cl)cc1)c1ccc2c(c1)c(-c1cccc(Cl)c1)cc(=O)n2C [tipifarnib]
How it was run: as §1

[6] = compound: NC(=O)Nc1cc(-c2cccc(F)c2)sc1C(=O)N[C@H]1CCCNC1
How it was run: as §1

[7] = compound: NC(=O)c1cnc(N[C@@H]2CCCC[C@@H]2N)nc1Nc1cccc(-n2nccn2)c1
How it was run: as §1

[8] = compound: NC1(c2ccc(-c3nc4ccn5c(=O)[nH]nc5c4cc3-c3ccccc3)cc2)CCC1
How it was run: as §1

Target | log2 fold change (lapatinib) | log2 fold change (pictilisib) | log2 fold change (crizotinib) | log2 fold change [1] | log2 fold change (duvelisib) | log2 fold change (gandotinib) | log2 fold change (tozasertib) | log2 fold change (doramapimod) | log2 fold change (bafetinib) | log2 fold change [2] | log2 fold change (nilotinib) | log2 fold change [3] | log2 fold change (dasatinib) | log2 fold change [4] | log2 fold change [5] | log2 fold change (quisinostat) | log2 fold change (tipifarnib) | log2 fold change [6] | log2 fold change [7] | log2 fold change [8]
CCDC28B (UniProt Q9BUN5) | inactive: 0.138 | inactive: 0.101 | inactive: 0.147 | inactive: -0.141 | inactive: 0.044 | inactive: 0.243 | inactive: -0.091 | inactive: -0.066 | inactive: -0.162 | inactive: 0.091 | inactive: -0.181 | inactive: 0.278 | inactive: -0.1 | inactive: -0.046 | inactive: 0.123 | inactive: -0.123 | inactive: -0.086 | inactive: 0.068 | inactive: -0.074 | inactive: 0.158
CCDC13 (UniProt Q8IYE1) | inactive: -0.054 | inactive: -0.261 | inactive: -0.654 | inactive: -0.001 | inactive: 0.153 | inactive: -0.18 | inactive: -0.121 | inactive: -0.22 | inactive: -0.137 | inactive: 0.239 | inactive: -0.036 | inactive: 0.034 | inactive: -0.063 | inactive: 0.167 | inactive: -0.044 | inactive: -0.831 | inactive: 0.101 | inactive: -0.195 | inactive: 0 | 
CCDC137 (UniProt Q6PK04) | inactive: -0.029 | inactive: 0.159 | inactive: 0.057 | inactive: -0.003 | inactive: 0.012 | inactive: 0.045 | inactive: -0.028 | inactive: -0.02 | inactive: -0.015 | inactive: 0.012 | inactive: -0.1 | inactive: -0.043 | inactive: 0.12 | inactive: 0.034 | inactive: -0.05 | inactive: 0.034 | inactive: -0.04 | inactive: 0.101 | inactive: 0 | inactive: -0.124
CCS (UniProt O14618) | inactive: -0.028 | inactive: 0.052 | inactive: 0.025 | inactive: -0.064 | inactive: -0.009 | inactive: 0.153 | inactive: 0.031 | inactive: -0.078 | inactive: -0.021 | inactive: 0.02 | inactive: -0.018 | inactive: 0.013 | inactive: 0 | inactive: -0.051 | inactive: 0.024 | inactive: -0.061 | inactive: -0.016 | inactive: -0.042 | inactive: 0.009 | inactive: 0.059
CCNB2 (UniProt O95067) | inactive: -0.048 | inactive: -0.091 | inactive: -0.018 | inactive: -0.016 | inactive: 0.032 | inactive: -0.108 | inactive: 0.023 | inactive: 0.009 | inactive: -0.035 | inactive: 0.068 | inactive: -0.053 | inactive: 0.081 | inactive: -0.016 | active: 0.21 | inactive: -0.046 | inactive: -0.081 | inactive: -0.029 | inactive: 0.012 | inactive: -0.038 | inactive: 0
CCDC88C (UniProt Q9P219) | inactive: 0.033 | inactive: 0.153 | inactive: 0.023 | inactive: -0.117 | inactive: 0.042 | inactive: 0.034 | inactive: 0.232 | inactive: -0.032 | inactive: -0.064 | inactive: 0.034 | inactive: 0.091 | inactive: 0.072 | inactive: -0.001 | inactive: 0.113 | inactive: 0.026 | inactive: 0.021 | inactive: 0.007 | inactive: -0.003 | inactive: 0.017 | inactive: 0.327
CCDC91 (UniProt Q7Z6B0) | inactive: 0.015 | inactive: -0.006 | inactive: 0.003 | inactive: 0.061 | inactive: 0.016 | inactive: -0.003 | inactive: 0.031 | inactive: -0.005 | inactive: 0.008 | inactive: -0.04 | inactive: 0.018 | inactive: 0.011 | inactive: -0.02 | inactive: 0.016 | inactive: 0.014 | inactive: -0.004 | inactive: 0.008 | inactive: 0.008 | inactive: -0.012 | inactive: 0.003
CARD8 isoform 5 (UniProt Q9Y2G2) | inactive: -0.012 | inactive: 0.043 | inactive: -0.014 | inactive: -0.05 | inactive: 0.052 | inactive: 0.173 | inactive: -0.009 | inactive: -0.006 | inactive: -0.067 | inactive: 0.12 | inactive: 0.001 | inactive: -0.023 | inactive: 0.013 | inactive: 0.06 | inactive: -0.045 | inactive: 0.004 | inactive: -0.031 | inactive: 0.02 | inactive: 0.048 | inactive: -0.016
CCT6A (UniProt P40227) | inactive: -0.01 | inactive: 0.008 | inactive: 0.026 | inactive: 0.009 | inactive: -0.004 | inactive: -0.018 | inactive: -0.012 | inactive: -0.013 | inactive: 0.013 | inactive: -0.028 | inactive: -0.003 | inactive: -0.004 | inactive: -0.001 | inactive: -0.007 | inactive: 0.001 | inactive: 0.037 | inactive: 0.014 | inactive: -0.005 | inactive: 0.003 | inactive: 0.005
CCNYL1 (UniProt Q8N7R7) | inactive: 0.018 | inactive: -0.012 | inactive: -0.015 | inactive: -0.201 | inactive: -0.003 | inactive: 0.085 | inactive: 0.052 | inactive: -0.004 | inactive: 0.006 | inactive: 0.067 | inactive: -0.001 | inactive: -0.033 | inactive: 0.034 | inactive: 0.043 | inactive: -0.003 | inactive: -0.078 | inactive: -0.08 | inactive: 0.008 | inactive: 0.075 | inactive: -0.006
CCDC51 (UniProt Q96ER9) | inactive: -0.038 | inactive: -0.055 | inactive: -0.01 | active: 0.259 | inactive: -0.034 | active: -0.217 | inactive: 0.007 | inactive: -0.053 | inactive: -0.106 | inactive: -0.232 | inactive: -0.037 | inactive: -0.049 | inactive: -0.016 | inactive: 0.035 | inactive: -0.014 | inactive: 0.017 | inactive: -0.082 | inactive: 0.02 | inactive: -0.015 | inactive: -0.04
CD81 (UniProt P60033) | inactive: 0.003 | inactive: 0.053 | inactive: -0.018 | inactive: -0.119 | inactive: 0.077 | inactive: 0.121 | inactive: 0.023 | inactive: -0.022 | inactive: 0.096 | inactive: 0.053 | inactive: -0.022 | inactive: -0.012 | inactive: 0.018 | inactive: -0.07 | inactive: -0.126 | inactive: -0.196 | inactive: -0.07 | inactive: 0.037 | inactive: -0.039 | inactive: -0.041
CCDC88A (UniProt Q3V6T2) | inactive: -0.02 | inactive: -0.021 | inactive: -0.006 | inactive: -0.002 | inactive: 0.032 | inactive: -0.038 | inactive: 0.002 | inactive: 0.041 | inactive: -0.023 | inactive: 0.045 | inactive: -0.046 | inactive: 0.043 | inactive: 0.021 | inactive: -0.024 | inactive: 0.039 | inactive: -0.041 | inactive: -0.017 | inactive: 0.031 | inactive: 0.042 | inactive: 0.014
CCDC28A (UniProt Q8IWP9) | inactive: -0.008 | inactive: -0.057 | inactive: 0.047 | inactive: 0.017 | inactive: -0.005 | inactive: 0.058 | inactive: 0.056 | inactive: 0.024 | inactive: 0.043 | inactive: 0 | inactive: -0.035 | inactive: -0.075 | inactive: 0.055 | inactive: 0.013 | inactive: -0.017 | inactive: -0.021 | inactive: 0.138 | inactive: -0.005 | inactive: -0.042 | inactive: 0
CBX3 (UniProt Q13185) | inactive: 0.001 | inactive: 0.008 | inactive: 0.008 | inactive: -0.178 | inactive: 0.032 | inactive: 0.03 | inactive: -0.023 | inactive: -0.08 | inactive: 0.157 | inactive: 0.092 | inactive: 0.036 | inactive: -0.06 | inactive: 0.021 | inactive: 0.066 | inactive: -0.097 | inactive: 0.142 | inactive: 0.033 | inactive: -0.052 | inactive: 0.016 | inactive: 0.034
CCDC6 (UniProt Q16204) | inactive: 0.011 | inactive: 0.028 | inactive: 0.003 | inactive: -0.017 | inactive: -0.02 | inactive: 0.056 | inactive: -0.02 | inactive: 0.005 | inactive: 0.013 | inactive: -0.005 | inactive: 0.01 | inactive: -0.007 | inactive: 0.013 | inactive: -0.011 | inactive: 0.001 | inactive: 0 | inactive: 0.002 | inactive: -0.008 | inactive: -0.014 | inactive: 0.017

Part of the list above in a different format:
Target	log2 fold change (lapatinib)	log2 fold change (pictilisib)	log2 fold change (crizotinib)	log2 fold change [1]	log2 fold change (duvelisib)	log2 fold change (gandotinib)	log2 fold change (tozasertib)	log2 fold change (doramapimod)	log2 fold change (bafetinib)	log2 fold change [2]	log2 fold change (nilotinib)	log2 fold change [3]	log2 fold change (dasatinib)	log2 fold change [4]	log2 fold change [5]	log2 fold change (quisinostat)	log2 fold change (tipifarnib)	log2 fold change [6]	log2 fold change [7]	log2 fold change [8]
CCS (UniProt O14618)	inactive: -0.028	inactive: 0.052	inactive: 0.025	inactive: -0.064	inactive: -0.009	inactive: 0.153	inactive: 0.031	inactive: -0.078	inactive: -0.021	inactive: 0.02	inactive: -0.018	inactive: 0.013	inactive: 0	inactive: -0.051	inactive: 0.024	inactive: -0.061	inactive: -0.016	inactive: -0.042	inactive: 0.009	inactive: 0.059
CD81 (UniProt P60033)	inactive: 0.003	inactive: 0.053	inactive: -0.018	inactive: -0.119	inactive: 0.077	inactive: 0.121	inactive: 0.023	inactive: -0.022	inactive: 0.096	inactive: 0.053	inactive: -0.022	inactive: -0.012	inactive: 0.018	inactive: -0.07	inactive: -0.126	inactive: -0.196	inactive: -0.07	inactive: 0.037	inactive: -0.039	inactive: -0.041
